Common to all, as to assay type: functional
One assay deals with Escherichia coli. Description: Antibacterial activity Escherichia coli at 40 ug/disc after 24 hrs by agar disc diffusion method. The gist of the method:
(§1)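 Agar disc diffusion. Strains were grown in Mueller Hinton broth for 18–24 h at 37 °C. The bacterial suspension was spread on Mueller Hinton agar, and dried loaded discs were placed on it once the plates were dry. Gentamycin and […] reference discs carried 40 mcg/disc from 1 mg/ml solutions. Plates were incubated 24 h at 37 °C, and clear inhibition zones were measured in mm.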
(In general: A growth-free zone around the sample is the usual read-out of agar diffusion tests.)

The next assay has as its system Staphylococcus aureus. Put plainly: Antibacterial activity Staphylococcus aureus at 40 ug/disc after 24 hrs by agar disc diffusion method. The gist of the method:
as §1

The next assay deals with Pseudomonas aeruginosa. Put plainly: Antibacterial activity Pseudomonas aeruginosa at 40 ug/disc after 24 hrs by agar disc diffusion method. The essentials:
as §1

On to GENTAMICIN, for which the values for the inhibition zone (IZ) in the assay on Escherichia coli, in the assay with Staphylococcus aureus and in the assay on Pseudomonas aeruginosa were 11 mm, 7 mm and 17 mm, respectively.

The values are drawn from ChEMBL document CHEMBL1949668, “Synthesis of new α aminophosphonate system bearing Indazole moiety and their biological activity” (2012).
